Source: EP4796557A1, “POLYPEPTIDE, BIOACTIVE CONJUGATE, AND PREPARATION METHOD THEREFOR AND USE THEREOF” (priority 2023, dated 2025)
No constants are given. Whether binding was seen depends on the method and setting. Some binding calls cover weakened binding; strength is not graded here.

The chains behind the UniProt entries cited, without tags or fusion partners. Where a name states a change or a piece, a line headed by the entry shows the natural chain unless it says otherwise. Residues count along the entry.
UniProt P13726: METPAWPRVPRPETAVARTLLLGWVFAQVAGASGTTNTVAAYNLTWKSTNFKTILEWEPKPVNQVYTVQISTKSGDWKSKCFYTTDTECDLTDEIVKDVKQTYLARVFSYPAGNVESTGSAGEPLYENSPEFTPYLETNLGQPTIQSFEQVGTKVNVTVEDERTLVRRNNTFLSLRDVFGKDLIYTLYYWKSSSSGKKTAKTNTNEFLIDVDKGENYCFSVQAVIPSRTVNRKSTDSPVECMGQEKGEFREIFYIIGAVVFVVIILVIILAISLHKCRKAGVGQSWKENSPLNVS
Tissue Factor on MDA-MB-231 cells: residues 33-295 of P13726
antigen protein TF: residues 33-251 of P13726

Legend:
antigen protein TF [1] = biological target: antigen protein TF (UniProt P13726); test: ELISA, TF coated
antigen protein TF [2] = biological target: antigen protein TF (UniProt P13726); test: BLI (Fortebio), antibody on ProA sensor
[3] = biological target: Tissue Factor on MDA-MB-231 cells (UniProt P13726); test: flow cytometry on MDA-MB-231 cells

Measured: binding

B1: h1849-H3L3 (antibody, human IgG1, kappa, V domains shown)
VH: EVQLVESGGGVVQPGRSLRLSCAASGFTFSDYNMAWIRQAPGKGLEWVAAIIYDGTRTYYRDSVKGRFTISRDNSKSTLYLQMNSLRAEDTAVYYCATGDSYTNFAYWGQGTLVTVSS
VL: EIVLTQSPTSLSASVGDRVTITCRASSSLSYMHWYQQKPGTSPKLLIYETSKLESGVPSRFSGSGSGTDFTLTIDSLQPEDFATYYCQQGNSYPRTFGGGTKVEIKR
binds: all assays above

B2: h1849-H2L1 (antibody, human IgG1, kappa, V domains shown)
VH: EVQLVESGGGVVQPGRSLRLSCAASGFTFSDYNMAWIRQAPGKGLEWVAAIIYDGTRTYYRDSVKGRFTISRDNSKSTLYLQMDSLRAEDTAVYYCATGDSYTNFAYWGQGTLVTVSS
VL: EIVLTQSPTFLSASVGDRVTITCRASSSLSYMHWYQQKPGTSPKLLIYETSKLQSGVPSRFSGSGSGTSFTLTIDSLQPEDFATYYCQQGNSYPRTFGGGTKVEIKR
binds: all assays above
